Reference: PMC8782181

Sequences of proteins named here, by UniProt entry; tags and fusion partners are left off.
UniProt P53297: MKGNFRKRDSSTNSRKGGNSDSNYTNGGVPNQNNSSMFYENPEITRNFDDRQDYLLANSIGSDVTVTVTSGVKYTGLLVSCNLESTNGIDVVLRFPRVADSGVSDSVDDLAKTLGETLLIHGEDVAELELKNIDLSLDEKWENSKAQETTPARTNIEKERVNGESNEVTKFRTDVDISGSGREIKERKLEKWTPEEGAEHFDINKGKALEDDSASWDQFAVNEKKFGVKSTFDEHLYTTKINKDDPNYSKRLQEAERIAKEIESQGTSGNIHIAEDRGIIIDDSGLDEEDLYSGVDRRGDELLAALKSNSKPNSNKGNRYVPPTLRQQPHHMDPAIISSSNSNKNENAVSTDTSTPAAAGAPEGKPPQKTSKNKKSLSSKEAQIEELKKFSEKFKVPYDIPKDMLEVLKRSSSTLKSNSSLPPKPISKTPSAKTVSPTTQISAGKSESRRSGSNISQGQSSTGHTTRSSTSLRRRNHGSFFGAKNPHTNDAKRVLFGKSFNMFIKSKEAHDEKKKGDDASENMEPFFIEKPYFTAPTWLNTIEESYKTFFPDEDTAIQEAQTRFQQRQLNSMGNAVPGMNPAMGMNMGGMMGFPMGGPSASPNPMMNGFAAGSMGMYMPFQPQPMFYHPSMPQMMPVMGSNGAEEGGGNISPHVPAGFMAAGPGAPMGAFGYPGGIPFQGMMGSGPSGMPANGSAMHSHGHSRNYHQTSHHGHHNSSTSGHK

Key:
[1] = target: T1, Dcp1-myc (S. cerevisiae) (UniProt Q12517); experiment: affinity purification with mass spectrometry; cells unstressed or glucose-depleted (10 min for Dcp1-myc, 60 min for Pbp1-myc), cross-linked with 0.8% formaldehyde; 20,000 g pellet of the lysate in Blob100 buffer (20 mM Tris-HCl pH 8, 100 mM NaCl, 1 mM MgCl2, 0.5% NP40) on anti-c-Myc magnetic beads, eluted with Myc peptide; label-free LC-MS/MS; hits are the proteins that cluster (Mfuzz) with the tagged bait across IP, pellet, supernatant, total and unbound fractions
T1 sequence: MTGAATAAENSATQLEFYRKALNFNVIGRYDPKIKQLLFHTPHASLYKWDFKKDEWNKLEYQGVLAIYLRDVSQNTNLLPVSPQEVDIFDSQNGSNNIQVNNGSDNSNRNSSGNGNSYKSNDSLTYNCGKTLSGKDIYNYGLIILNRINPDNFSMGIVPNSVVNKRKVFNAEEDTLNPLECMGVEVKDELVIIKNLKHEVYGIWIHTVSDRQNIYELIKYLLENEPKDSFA

[2] = target: Pbp1-myc (S. cerevisiae) (UniProt P53297); experiment: as above

B4: Clu1 (protein, UniProt Q03690 1-1277)
chain: MSEKKEEVKNATVKVTVKLPKEDNHSHNTKHLKKTQSSKNNDISFEIGKESKIQTVLDVLAMIPSSKYLTNVGLKTIEGDSQLSDEMSIKEIVGEKSELKLQLILKPYSAREALKHVITVRDFIGFAQETSDGLSEFAISTGSSFSSLPLGPIKERSKQEEKDEKSDPEEKKNTFKDVTDEEKLKFNEMVHEVFSSFKNSSINKLLTSESNIITPCVRSLSFAPYNPVPPFYRSKGHLFYLQIVTLEGESFYITAIPSGFYVNKSNSTKFDPSPKENTDENAHSSLIYYSLFDLIASRSKKFISHVQAFEKKLSALDSTSYVRPSNTFLHKPWFVSSLPPNNPDYLRLQTAALDTTPERNFNDEFQAIKDLTTSTLQDRIEMERLFSKVVHEFSVTAASGAMSIFYSDFVAMNPESPTRDQIFLKDNIFYSYVSDVSGNYEGKGGDEAAIAASNQDLKTINILNRLHMHEVRYLLTTVVEFAGRRILAQTPVPGLLATMGNKIVKDANTGEEVTEDFVNDINVKYGLDEGLGKIVYDADFDSVLEKKFVKAFHLKKHKVNGTELAFSSQSKGIVGFDKRRYILDLANTYPLDINFARQNFDNIEETGNRYPHRQTLLRPELVEKWWNNKVEKEGVEFEKAYEENLFSYNPDAYQVEGIEDANVDEMSNYLQKEVIPSVIQDYLSGNLSTPYNGEHLADTLHKNGINMRYLGKIIELSQKELDSQIVHYEQNLKAVEQDNKEYEDWEKSYLQKIENMIKERQAKINKLVQEGKEVPKELTEDLKLNDEEIKKPTDGKPVVVAYDELVPLIKISELEIVSRSLKHVLKDLSKDVPVFLVPSLVAYVFNMLVGINYNADPKPEPVDEFYPVNKCSFAKLTRSELLEAVSKQAFLRFRHQLPSNWIEAYMENPFTLIRSVSYKFGIQLLNKEYFFTREQLESYKQSLDKKIRNKFVEPPTTFSLSDLTIIPRVKFSEYTSSVSEEFWAQGASMINEDKQSALTLLAQSITVLEDVNNILHPAVAEKYLSLSAIYNKLALYPEAIAFCRKACTIYERVSGIDSFEMMRALTNLAILEFSNESPYNATVVYNRLAEILKVYELPKIHHPAPTSIFNHLEQLALGVQDTKLAIEVLGQLSSYVVELEGKDSLAYGYTESRLGNLFAALKDFHRALEHITVTQGIFTKQLGMNHTHSAQSRQWVNGLSSLIMDLKQKKQLAQDQMSTTGSNSAGHKKTNHRQKKDDVKPELANKSVDELLTFIEGDSSNSKSKNKTNNKKKHGKK
binding [1]: binds
binding [2]: binds

B6: Hek2 (protein, UniProt P38199 1-381)
chain: MSQFFEAATPVAIPTNNTNGGSSDAGSAATGGAPVVGTTAQPTINHRLLLSLKEAAKIIGTKGSTISRIRAANAVKIGISEKVPGCSDRILSCAGNVINVANAIGDIVDVLNKRNPENEDAAEGEAEEHYYFHFLNHILPAPSKDEIRDLQQLEDIGYVRLIVANSHISSIIGKAGATIKSLINKHGVKIVASKDFLPASDERIIEIQGFPGSITNVLIEISEIILSDVDVRFSTERSYFPHLKKSSGEPTSPSTSSNTRIELKIPELYVGAIIGRGMNRIKNLKTFTKTNIVVERKDDDDKDENFRKFIITSKFPKNVKLAESMLLKNLNTEIEKRENYKRKLEAAEGDATVVTERSDSASFLEEKEEPQENHDNKEEQS
binding [1]: binds
binding [2]: binds

B7: Cic1 (protein, UniProt P38779 1-376)
chain: MAKKSNSKKSTPVSTPSKEKKKVIEKKSSTAIPRERVIKAVNELIKFTSKPQDENNEEGNNGKKNLLEDDEEELKKDLQLIVVNNKSFTGTSKSFKLKLLNVKHSFYKPWKEASATAVKDFKVLLILKDSDIKKVSEDDLFDQLDSEGIKVDEIICGKDLKTVYKAYEARNAFISQFSLILADDSIVTSLPKLMGGKAYNKVETTPISIRTHANKEFSLTTLTNNIKKVYMNQLPVKLPRGTTLNVHLGNLEWLRPEEFVDNVELISEQLIKAYQIRSIFIKTNRSPVLPLYYNQDVLDELEAKKDKIEETHEDDMVTIDGVQVHLSTFNKGLMEIANPSELGSIFSKQINNAKKRSSSELEKESSESEAVKKAKS
binding [1]: binds
binding [2]: binds

The next lines start with the values.

binding [1]: binds
B1: Sro9 (protein, UniProt P25567 1-434)
chain: MSAETAAANTATAPVPEVQEQESSKSKQVNLTPAPLPTSSPWKLAPTEIPVSTISIEDLDATRKKKNRTPTPKSSTATKWVPIKASITVSGTKRSGSKNGASNGNSNKSKNNKTAASSTSSSNANRKKKHHQHNAKKQQQMKKDGFESAVGEEDSKDATSQENGQSTQQQQPPHHRNHHHSHHHNSNGPQRRKFHNSNNAGMPQNQGFPPQFKPYQGRNARNNNNNRSKYHNHFHHNQQHPQQPMVKLQQQFYPVQPVLMAINNIARQIEYYFSEENLTVDNYLRSKLSKDGFAPLSLISKFYRVVNMSFGGDTNLILAALREIVANEAATVNVAEGTLAAKEGDNVTGEAKEPSPLDKYFVRSKSWSNWLPETFETEINIEKELVGDALDQFMISLPPVPQQEEESSTELASQEQETKEDSAPVAAGESESSL

binding [1]: binds
B2: Nam7 (protein, UniProt P30771 1-971)
chain: MVGSGSHTPYDISNSPSDVNVQPATQLNSTLVEDDDVDNQLFEEAQVTETGFRSPSASDNSCAYCGIDSAKCVIKCNSCKKWFCNTKNGTSSSHIVNHLVLSHHNVVSLHPDSDLGDTVLECYNCGRKNVFLLGFVSAKSEAVVVLLCRIPCAQTKNANWDTDQWQPLIEDRQLLSWVAEQPTEEEKLKARLITPSQISKLEAKWRSNKDATINDIDAPEEQEAIPPLLLRYQDAYEYQRSYGPLIKLEADYDKQLKESQALEHISVSWSLALNNRHLASFTLSTFESNELKVAIGDEMILWYSGMQHPDWEGRGYIVRLPNSFQDTFTLELKPSKTPPPTHLTTGFTAEFIWKGTSYDRMQDALKKFAIDKKSISGYLYYKILGHQVVDISFDVPLPKEFSIPNFAQLNSSQSNAVSHVLQRPLSLIQGPPGTGKTVTSATIVYHLSKIHKDRILVCAPSNVAVDHLAAKLRDLGLKVVRLTAKSREDVESSVSNLALHNLVGRGAKGELKNLLKLKDEVGELSASDTKRFVKLVRKTEAEILNKADVVCCTCVGAGDKRLDTKFRTVLIDESTQASEPECLIPIVKGAKQVILVGDHQQLGPVILERKAADAGLKQSLFERLISLGHVPIRLEVQYRMNPYLSEFPSNMFYEGSLQNGVTIEQRTVPNSKFPWPIRGIPMMFWANYGREEISANGTSFLNRIEAMNCERIITKLFRDGVKPEQIGVITPYEGQRAYILQYMQMNGSLDKDLYIKVEVASVDAFQGREKDYIILSCVRANEQQAIGFLRDPRRLNVGLTRAKYGLVILGNPRSLARNTLWNHLLIHFREKGCLVEGTLDNLQLCTVQLVRPQPRKTERPMNAQFNVESEMGDFPKFQDFDAQSMVSFSGQIGDFGNAFVDNTELSSYINNEYWNFENFKSAFSQKQNRNEIDDRNLYQEEASHLNSNFARELQREEQKHELSKDFSNLGI

binding [1]: binds
B3: Rpc19 (protein, UniProt P28000 1-142)
chain: MTEDIEQKKTATEVTPQEPKHIQEEEEQDVDMTGDEEQEEEPDREKIKLLTQATSEDGTSASFQIVEEDHTLGNALRYVIMKNPDVEFCGYSIPHPSENLLNIRIQTYGETTAVDALQKGLKDLMDLCDVVESKFTEKIKSM

binding [1]: binds
B5: Smi1 (protein, UniProt P32566 1-505)
chain: MDLFKRKVKEWVYSLSTDDHYAEYNPDETPTFNMGKRLNSNNGQVNPSQMHLNSVDEEMSMGFQNGVPSNEDINIDEFTSTESNDGVSETLLAWRHIDFWTSEHNPDLNATLSDPCTQNDITHAEEDLEVSFPNPVKASFKIHDGQEDLESMTGTSGLFYGFQLMTLDQVVAMTQAWRNVAKNLNKRSQQGLSHVTSTGSSSSMERLNGNKFKLPNIPDQKSIPPNAVQPVYAHPAWIPLITDNAGNHIGVDLAPGPNGKYAQIITFGRDFDTKFVIAENWGEFLLSFANDLEAGNWYLVDDNDDYFSGDGELVFRDKKSNGPIQDYFEVLKRRTWIKYQENLRSQQQKSQPDTSLQEQKYVPASQKKVAAEQPSTLNAESIKGEDSGSADVQSVQDHESVKIVKTEPSEAETTTVNTESLGQAEHEIKADNVDIKQESERKEDEKQPKVEEKEHVENEHVTESAKKDDDVNKQTEEMNKKEENEIRSDDAKVEEAREEFENIAL

No constants are given. Whether binding was seen depends on the method and setting. In cells and extracts the contact can be indirect. These calls come from enrichment with a bait or labelling near it, and not all partners need be listed. For some of these results: Tags and fused reporters may be left off the sequences shown. Each block holds one binder with its values, some of them ahead of it.
